Measurements published in US7053194.
Results are given in words; binding and its absence hold for the method and conditions named. Binding seen in cells or lysates may run through a third protein. Some binding calls cover weakened binding; strength is not graded here.

Legend:
[1] = molecular target: T1, mSin3a (endogenous, murine Va15 cells) (UniProt Q60520); assay: co-immunoprecipitation from Va15 cells at 39 degrees (mutant conformation), p53 western
T1 sequence (looked up): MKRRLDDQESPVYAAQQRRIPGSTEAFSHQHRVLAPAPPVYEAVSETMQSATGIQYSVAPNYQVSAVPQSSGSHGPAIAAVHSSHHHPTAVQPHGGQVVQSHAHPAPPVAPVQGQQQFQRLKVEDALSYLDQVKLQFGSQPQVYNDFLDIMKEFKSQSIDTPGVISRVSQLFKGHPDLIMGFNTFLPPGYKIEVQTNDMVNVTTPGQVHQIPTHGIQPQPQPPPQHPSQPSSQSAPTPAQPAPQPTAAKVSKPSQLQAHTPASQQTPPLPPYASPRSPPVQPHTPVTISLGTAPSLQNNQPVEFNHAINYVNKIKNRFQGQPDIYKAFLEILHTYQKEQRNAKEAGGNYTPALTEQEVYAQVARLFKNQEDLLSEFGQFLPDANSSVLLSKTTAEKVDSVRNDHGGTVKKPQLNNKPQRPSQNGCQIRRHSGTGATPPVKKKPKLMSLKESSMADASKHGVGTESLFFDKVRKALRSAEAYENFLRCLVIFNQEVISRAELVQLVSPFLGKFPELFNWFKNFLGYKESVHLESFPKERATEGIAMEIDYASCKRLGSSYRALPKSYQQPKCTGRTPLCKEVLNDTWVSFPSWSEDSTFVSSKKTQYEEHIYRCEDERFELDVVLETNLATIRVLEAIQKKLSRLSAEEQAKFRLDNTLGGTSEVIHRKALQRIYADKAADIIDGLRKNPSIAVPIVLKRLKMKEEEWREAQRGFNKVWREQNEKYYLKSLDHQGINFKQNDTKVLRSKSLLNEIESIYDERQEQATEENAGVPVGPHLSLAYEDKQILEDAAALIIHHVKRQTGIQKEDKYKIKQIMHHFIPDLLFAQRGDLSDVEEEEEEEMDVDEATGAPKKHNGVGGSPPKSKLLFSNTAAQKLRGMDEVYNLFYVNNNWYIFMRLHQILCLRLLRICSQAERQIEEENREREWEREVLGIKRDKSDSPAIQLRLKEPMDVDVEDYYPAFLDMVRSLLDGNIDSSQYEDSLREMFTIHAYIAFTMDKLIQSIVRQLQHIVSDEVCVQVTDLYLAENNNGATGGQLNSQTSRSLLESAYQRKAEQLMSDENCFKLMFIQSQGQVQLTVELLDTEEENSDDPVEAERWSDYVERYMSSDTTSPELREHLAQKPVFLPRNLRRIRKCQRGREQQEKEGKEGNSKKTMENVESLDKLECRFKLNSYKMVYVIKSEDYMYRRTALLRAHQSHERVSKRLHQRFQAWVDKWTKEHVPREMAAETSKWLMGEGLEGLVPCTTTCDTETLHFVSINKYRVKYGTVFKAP

[2] = molecular target: T1, mSin3a (endogenous, murine Va15 cells); assay: co-immunoprecipitation from Va15 cells at 32 degrees (wild type conformation) with Sin3a antisera, p53 western

In the case of “temperature-sensitive p53 (Valine 135 allele) of murine Va15 cells (from UniProt P02340 1-390)”, the binding [1] is reported as “binds” and the binding [2] is reported as “binds”.
